Results published in the supplement of paper PMC10338343.
± gives the standard deviation. The list shows a part of the results, in another mix than the full data. The uncertainty is large for many entries.

Test system: MILI (PIWIL2) piRISC loaded with L1MC piRNA (26 nt)
Assay: pre-steady-state target cleavage rate (min^-1); MIWI and MILI are mouse PIWI proteins and EfPiwi is from a freshwater sponge; tags in brackets are library labels; higher = faster piRNA-guided slicing of the target
Conditions: guide: L1MC piRNA 5'p-UAACUAAAUACUAUGCAAGCUGUAGG; auxiliary factor: 500 nM mouse GTSF1
Procedure, shortened: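 A burst-and-steady-state fit was used to obtain the pre-steady-state cleavage rate. The input data were sequencing reads of uncleaved targets, normalised to depth and to weakly complementary targets, from a […] transcribed, DNA-blocked target RNA library mixed with 1 nM active affinity-purified piRISC holding one synthetic guide, with or without 500 nM GTSF1 partner protein, in HEPES–potassium acetate buffer at 33 °C for 0–8 or 0–960 min. Three trials were pooled and k3 was capped at 0.0001 min^-1.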
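Note: 1 nM active piRISC with 0.1 nM target library at 33 °C single turnover.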

Sequence | pre-steady-state target cleavage rate
UCCUGGAUGUCGAACGCUAGUAUUUAGUUA | 0.000136 ± 0.019
UCCUGGAUGUCGAACGUAAGUAUUUUAGUUA | 0.000216 ± 0.029
UCCUGGUACAGCUUGCAUAGUAUUUAGUUC [g2:g24:cont:t1C] | 0.3 ± 0.016
UCCUGGAUCAGCUUGGCAUAGUAUUUAGUUA | 0.3 ± 0.061
UCCUGGAUGAGCUUGCAUAGUAUUUGAGUUA | 0.307 ± 0.051

Same assay, conditions: guide: L1MC piRNA 5'p-UAACUAAAUACUAUGCAAGCUGUAGG; auxiliary factor: none (no GTSF1)

Sequence | pre-steady-state target cleavage rate
UCCUGGAUGUCGUUGGAUUGUAUUUAGUUA | 0.000178 ± 0.04
UCCUGGAUGUCGAACGUAUCAAUUUAGUUU [g2:g9:cont:t1U] | 0.000222 ± 0.02
UCCUGCUACAGCUUGCUUAGUAUUUUGUUA | 0.00199 ± 0.0029
UCCUGGAUGUCGAACGAUAGUAUCUUAGUUA | 0.000127 ± 0.032
UCCUGGAUGUCGAUCGAUAGUAUUUAGUUA | 0.000159 ± 0.015
UCCUGGAUGUCGAACGUAUGUAUUUUCAAA [g6:g11:cont:t1A] | < 0.0001
UCCUGGAUCAGCUUGCAUAGUAUUUAGCUUA | 0.00282 ± 0.0034
UCCUGCUACAGCUUGCAUAGUUUUUAGAUA | 0.000955 ± 0.0065
UCCUGGUACAGCUUGCAUAGUUUUUUGUUA | 0.00158 ± 0.0057
UCCUGGAUGUCGAACGAUAGUAUUUAGUGUA | 0.000122 ± 0.03
UCCUGGAUGUCGAUCCAUUGUAUUUAGUUA | < 0.0001
UCCUGGAUGUCGAACCAUACUAUUUUGUUA | 0.00033 ± 0.0096
UCCUGGAUGUCGAACGUUAGUAUUAUCAAA [g7:g13:cont:t1A] | 0.000236 ± 0.016
UCCUGGAUGUCGAACGUAUGUAUUUACGUUA | 0.000268 ± 0.024
UCCUGGAUGAGCUUGGAUACUAUUUAGUUA | 0.0016 ± 0.0042
UCCUGGAUGUCGAACGUAUCUAUUUAGUUUA | 0.000341 ± 0.011
UCCUGGAUGUCGAACGUUAGUAUAUAGUAA | 0.000261 ± 0.019
UCCUGGAUGUGCUUGCAUAGUAUAUAGUUA | 0.00284 ± 0.0035

Reprinted at random: three entries already listed.
Sequence | pre-steady-state target cleavage rate
UCCUGGAUGUCGUUGGAUUGUAUUUAGUUA | 0.000178 ± 0.04
UCCUGGAUGUCGAACCAUACUAUUUUGUUA | 0.00033 ± 0.0096
UCCUGCUACAGCUUGCUUAGUAUUUUGUUA | 0.00199 ± 0.0029

Further records:

Sequence | pre-steady-state target cleavage rate
UCCUGGAUGUCGAACCAUUGUAUUUUGUUA | 0.000483 ± 0.0093
UCCUGGAUGUCGAAGCAUAGUAUUUACAAA | 0.000181 ± 0.026
UCCUGGAUGUCGAACGUUAGUUAUUAGUUA | 0.000104 ± 0.036
UCCUCCUACUGCUUGCAUAGUAUUUACAAA | 0.000945 ± 0.0053
UCCUCCUAGUGCUUGCAUAGUAUUUAGAAA | 0.00068 ± 0.0063
UCCUGGUAGUGCUUGCAUAGUAUUUAGAAA | 0.00137 ± 0.0047
UCCUGGAUGUCGAACGUUAGUAUCUUAGUUA | 0.000206 ± 0.022
UCCUGGAUGUCGAACGUAUGUAUUUCGUUA | < 0.0001
UCCUGGAUGUCGAUGCAUACUAUAUAGUUA | 0.000151 ± 0.043
UCCUGGAUGUCGAACGUAUCUUAAUAGUUA | 0.000201 ± 0.018
UCCUGGAUGUGCUUGCUUAGUAUUUAGAUA | 0.00296 ± 0.0032
UCCUGGAUGUCGAACGUAAGUAAAAAGUUA | 0.000301 ± 0.012
UCCUGGAUGUGCUUGCAUAUUAUUUAGUUA | 0.00294 ± 0.003
UCCUGGAUGUCGAACGUAUGUAAUUUAGUUA | 0.000174 ± 0.026
UCCUGGAUGUCGAACGUAAGUAUAUAGUUA | 0.000167 ± 0.023
UCCUGGAUGUCGAACGUAAGUAUUUAGUUA [g2:g12:cont:t1A] | 0.000147 ± 0.023
UCCUCCUACAGCUUGCAUAGUAUUUAGUGA | 0.0019 ± 0.0036
